# Experimental data reported in the supplement of paper PMC6411743.
# By UniProt entry, the sequences of proteins in these tests, tags left out. Where a name states a change or a piece, a line headed by the entry shows the natural chain unless it says otherwise.
# UniProt Q8N697: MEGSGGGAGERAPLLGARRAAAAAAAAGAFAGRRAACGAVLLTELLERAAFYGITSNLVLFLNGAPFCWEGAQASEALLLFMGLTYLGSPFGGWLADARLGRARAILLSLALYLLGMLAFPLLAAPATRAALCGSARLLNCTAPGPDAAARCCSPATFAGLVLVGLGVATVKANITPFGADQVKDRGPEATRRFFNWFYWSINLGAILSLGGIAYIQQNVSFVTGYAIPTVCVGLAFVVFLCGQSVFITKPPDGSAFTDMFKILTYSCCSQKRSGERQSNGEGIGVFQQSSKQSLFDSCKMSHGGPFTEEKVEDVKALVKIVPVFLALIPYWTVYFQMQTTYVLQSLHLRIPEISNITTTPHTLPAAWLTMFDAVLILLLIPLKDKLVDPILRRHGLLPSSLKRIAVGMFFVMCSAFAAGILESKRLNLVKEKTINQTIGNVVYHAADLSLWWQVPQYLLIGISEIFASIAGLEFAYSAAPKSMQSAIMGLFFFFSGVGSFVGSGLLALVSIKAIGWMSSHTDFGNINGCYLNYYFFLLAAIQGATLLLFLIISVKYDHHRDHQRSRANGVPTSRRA
# UniProt Q6IQ55, whole entry: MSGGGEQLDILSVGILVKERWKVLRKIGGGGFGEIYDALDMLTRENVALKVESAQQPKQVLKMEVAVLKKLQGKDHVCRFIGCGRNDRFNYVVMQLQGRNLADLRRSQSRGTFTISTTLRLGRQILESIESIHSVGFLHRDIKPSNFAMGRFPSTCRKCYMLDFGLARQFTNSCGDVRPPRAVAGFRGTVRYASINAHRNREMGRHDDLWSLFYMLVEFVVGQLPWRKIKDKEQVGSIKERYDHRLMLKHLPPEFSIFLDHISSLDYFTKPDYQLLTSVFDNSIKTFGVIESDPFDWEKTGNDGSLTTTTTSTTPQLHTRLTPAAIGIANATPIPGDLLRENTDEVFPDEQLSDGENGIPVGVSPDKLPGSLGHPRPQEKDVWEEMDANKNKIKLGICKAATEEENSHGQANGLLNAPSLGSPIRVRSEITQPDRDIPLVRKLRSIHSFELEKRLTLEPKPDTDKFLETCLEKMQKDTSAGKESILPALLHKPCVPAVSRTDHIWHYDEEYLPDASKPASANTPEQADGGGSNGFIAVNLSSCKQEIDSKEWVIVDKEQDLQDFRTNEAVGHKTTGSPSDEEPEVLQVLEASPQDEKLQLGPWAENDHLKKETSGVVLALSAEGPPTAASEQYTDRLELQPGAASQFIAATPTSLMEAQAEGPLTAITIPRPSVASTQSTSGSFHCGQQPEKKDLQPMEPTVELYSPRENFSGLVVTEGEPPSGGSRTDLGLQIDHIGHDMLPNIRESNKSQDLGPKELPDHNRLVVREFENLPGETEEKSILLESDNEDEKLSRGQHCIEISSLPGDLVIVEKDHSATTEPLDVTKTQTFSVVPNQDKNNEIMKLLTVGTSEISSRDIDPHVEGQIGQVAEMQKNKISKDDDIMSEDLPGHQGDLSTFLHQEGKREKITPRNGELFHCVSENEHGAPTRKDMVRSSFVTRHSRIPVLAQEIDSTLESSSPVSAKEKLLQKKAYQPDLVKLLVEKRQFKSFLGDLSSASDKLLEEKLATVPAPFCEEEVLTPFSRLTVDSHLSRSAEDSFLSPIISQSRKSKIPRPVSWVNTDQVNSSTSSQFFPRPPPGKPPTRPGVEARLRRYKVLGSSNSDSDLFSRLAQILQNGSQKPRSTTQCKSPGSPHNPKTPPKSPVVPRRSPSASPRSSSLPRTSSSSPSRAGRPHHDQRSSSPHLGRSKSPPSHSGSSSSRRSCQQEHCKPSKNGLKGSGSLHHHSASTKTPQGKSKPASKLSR
# UniProt Q86X95: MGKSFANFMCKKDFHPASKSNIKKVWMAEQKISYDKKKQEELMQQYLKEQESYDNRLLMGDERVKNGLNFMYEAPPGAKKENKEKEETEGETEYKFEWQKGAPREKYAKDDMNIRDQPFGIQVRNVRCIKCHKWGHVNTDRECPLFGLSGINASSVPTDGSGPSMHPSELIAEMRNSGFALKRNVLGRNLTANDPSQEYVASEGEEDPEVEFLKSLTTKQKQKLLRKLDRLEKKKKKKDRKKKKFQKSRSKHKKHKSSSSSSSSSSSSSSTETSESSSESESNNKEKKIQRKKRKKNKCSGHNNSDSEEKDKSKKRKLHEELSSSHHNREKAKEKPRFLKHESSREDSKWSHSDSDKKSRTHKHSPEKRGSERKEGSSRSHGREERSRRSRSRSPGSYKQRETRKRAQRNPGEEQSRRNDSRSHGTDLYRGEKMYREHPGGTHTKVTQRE
# UniProt Q8N9F7: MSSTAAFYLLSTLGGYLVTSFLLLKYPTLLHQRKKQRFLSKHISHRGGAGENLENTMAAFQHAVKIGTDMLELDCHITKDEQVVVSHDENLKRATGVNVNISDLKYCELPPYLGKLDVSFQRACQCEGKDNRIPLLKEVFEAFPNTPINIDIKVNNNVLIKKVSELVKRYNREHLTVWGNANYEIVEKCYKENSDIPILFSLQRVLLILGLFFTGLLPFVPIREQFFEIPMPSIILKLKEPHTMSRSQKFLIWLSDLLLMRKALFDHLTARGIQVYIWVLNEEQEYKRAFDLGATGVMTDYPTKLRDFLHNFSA
# UniProt Q86YS7: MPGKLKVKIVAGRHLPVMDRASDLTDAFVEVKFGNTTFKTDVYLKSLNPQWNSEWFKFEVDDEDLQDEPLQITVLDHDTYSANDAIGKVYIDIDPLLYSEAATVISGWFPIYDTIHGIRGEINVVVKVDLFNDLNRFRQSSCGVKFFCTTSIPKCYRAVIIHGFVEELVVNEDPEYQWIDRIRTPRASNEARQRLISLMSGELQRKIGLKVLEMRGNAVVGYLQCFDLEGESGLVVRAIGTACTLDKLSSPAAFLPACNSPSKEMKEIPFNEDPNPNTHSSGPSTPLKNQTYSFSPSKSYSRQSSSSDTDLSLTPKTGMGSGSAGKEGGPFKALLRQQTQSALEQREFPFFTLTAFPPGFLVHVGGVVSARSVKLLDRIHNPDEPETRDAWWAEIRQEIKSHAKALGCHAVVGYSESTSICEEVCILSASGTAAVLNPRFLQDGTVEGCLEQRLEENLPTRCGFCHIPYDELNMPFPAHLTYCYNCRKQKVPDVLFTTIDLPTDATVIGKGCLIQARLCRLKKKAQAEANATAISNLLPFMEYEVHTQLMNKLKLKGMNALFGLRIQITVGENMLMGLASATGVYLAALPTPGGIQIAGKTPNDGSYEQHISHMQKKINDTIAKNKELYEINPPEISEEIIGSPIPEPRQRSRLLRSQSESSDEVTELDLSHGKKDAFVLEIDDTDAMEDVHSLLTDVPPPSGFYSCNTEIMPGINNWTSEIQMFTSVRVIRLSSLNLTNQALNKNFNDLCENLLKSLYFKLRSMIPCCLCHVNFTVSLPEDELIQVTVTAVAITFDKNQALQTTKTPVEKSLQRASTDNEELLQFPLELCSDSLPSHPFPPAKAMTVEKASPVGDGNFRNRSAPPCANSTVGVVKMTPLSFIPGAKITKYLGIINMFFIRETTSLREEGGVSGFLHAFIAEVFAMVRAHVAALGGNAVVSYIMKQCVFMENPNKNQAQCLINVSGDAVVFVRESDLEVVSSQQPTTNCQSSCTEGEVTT
# UniProt Q86SK9: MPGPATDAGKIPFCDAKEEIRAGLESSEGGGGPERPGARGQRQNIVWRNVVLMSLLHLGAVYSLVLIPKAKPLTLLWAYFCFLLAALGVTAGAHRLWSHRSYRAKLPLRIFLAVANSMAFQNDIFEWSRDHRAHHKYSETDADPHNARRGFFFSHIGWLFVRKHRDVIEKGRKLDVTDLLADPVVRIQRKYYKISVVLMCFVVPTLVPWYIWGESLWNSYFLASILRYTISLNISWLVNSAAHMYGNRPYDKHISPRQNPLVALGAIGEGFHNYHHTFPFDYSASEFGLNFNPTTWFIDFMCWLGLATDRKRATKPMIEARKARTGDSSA
# UniProt Q8IU81: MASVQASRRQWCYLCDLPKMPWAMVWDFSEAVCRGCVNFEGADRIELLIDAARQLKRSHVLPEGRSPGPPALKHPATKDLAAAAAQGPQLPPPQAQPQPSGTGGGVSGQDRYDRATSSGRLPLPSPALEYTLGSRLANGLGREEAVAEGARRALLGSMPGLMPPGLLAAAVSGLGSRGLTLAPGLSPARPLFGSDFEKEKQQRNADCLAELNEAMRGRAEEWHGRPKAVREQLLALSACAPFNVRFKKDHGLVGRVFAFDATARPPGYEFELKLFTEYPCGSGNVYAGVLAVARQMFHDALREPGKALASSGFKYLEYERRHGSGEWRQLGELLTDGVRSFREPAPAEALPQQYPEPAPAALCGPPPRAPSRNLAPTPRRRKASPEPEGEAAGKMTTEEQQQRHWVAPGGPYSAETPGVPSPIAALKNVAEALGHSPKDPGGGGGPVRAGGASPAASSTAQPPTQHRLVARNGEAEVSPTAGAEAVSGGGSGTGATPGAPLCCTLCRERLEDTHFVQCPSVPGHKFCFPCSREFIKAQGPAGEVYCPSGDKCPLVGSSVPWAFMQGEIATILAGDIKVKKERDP
# UniProt Q8N302: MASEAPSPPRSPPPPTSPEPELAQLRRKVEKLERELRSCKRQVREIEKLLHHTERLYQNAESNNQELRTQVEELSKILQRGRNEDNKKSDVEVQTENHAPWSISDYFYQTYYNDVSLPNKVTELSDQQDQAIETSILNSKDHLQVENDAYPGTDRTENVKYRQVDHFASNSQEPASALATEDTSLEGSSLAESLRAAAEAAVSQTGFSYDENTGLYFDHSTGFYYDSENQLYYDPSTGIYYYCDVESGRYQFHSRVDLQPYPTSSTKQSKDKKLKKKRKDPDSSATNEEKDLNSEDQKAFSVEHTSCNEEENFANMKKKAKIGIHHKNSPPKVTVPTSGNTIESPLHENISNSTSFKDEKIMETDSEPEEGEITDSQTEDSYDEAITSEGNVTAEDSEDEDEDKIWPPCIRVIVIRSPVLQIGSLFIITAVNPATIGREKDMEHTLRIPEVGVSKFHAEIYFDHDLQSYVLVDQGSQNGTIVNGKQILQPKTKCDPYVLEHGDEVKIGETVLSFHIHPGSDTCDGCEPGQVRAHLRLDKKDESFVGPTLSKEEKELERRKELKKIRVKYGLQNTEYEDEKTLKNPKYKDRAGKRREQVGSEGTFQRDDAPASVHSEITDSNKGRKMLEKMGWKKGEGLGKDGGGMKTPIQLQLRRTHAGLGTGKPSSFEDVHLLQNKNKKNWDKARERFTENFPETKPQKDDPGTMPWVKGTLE
# UniProt Q8N6T3: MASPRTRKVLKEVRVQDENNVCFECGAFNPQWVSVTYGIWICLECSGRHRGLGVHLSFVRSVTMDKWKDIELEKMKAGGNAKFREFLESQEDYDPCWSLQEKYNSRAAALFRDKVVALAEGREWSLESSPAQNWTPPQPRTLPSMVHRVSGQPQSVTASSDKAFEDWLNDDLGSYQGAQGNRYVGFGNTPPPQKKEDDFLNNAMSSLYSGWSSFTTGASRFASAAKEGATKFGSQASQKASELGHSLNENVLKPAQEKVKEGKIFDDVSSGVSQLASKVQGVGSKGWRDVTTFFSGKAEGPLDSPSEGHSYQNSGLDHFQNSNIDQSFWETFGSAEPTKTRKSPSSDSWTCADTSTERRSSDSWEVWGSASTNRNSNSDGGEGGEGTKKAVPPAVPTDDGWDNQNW
# UniProt Q8IYB1: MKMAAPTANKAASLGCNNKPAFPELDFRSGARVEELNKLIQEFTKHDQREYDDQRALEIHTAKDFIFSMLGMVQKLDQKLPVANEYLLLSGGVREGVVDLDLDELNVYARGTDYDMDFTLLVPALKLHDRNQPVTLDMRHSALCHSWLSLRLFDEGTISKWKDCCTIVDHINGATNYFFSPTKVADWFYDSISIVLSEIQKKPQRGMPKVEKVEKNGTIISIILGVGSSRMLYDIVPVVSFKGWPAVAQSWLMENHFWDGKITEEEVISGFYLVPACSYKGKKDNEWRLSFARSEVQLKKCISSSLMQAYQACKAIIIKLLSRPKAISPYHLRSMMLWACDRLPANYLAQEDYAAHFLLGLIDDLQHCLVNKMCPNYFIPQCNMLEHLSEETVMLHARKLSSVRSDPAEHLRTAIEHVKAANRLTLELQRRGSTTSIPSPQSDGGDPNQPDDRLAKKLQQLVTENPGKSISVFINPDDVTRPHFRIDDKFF
# UniProt Q8IU85: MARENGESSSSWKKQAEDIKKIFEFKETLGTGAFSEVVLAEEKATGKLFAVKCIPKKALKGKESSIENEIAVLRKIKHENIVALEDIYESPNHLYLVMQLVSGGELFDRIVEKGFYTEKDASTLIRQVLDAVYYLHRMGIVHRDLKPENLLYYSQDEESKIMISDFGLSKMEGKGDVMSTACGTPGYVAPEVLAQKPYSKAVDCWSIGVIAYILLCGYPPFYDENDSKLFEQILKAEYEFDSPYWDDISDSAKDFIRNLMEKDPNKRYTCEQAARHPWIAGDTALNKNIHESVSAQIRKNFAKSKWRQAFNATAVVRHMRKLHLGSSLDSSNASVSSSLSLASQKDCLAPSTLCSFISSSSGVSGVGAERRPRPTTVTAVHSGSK
# ± gives the standard deviation of the averaged measurements. The entries are a selection whose mix differs from that of the whole data set.
# Compound: Nc1ncnc2c1ncn2[C@@H]1O[C@H](COP(=O)(O)OP(=O)(O)NP(=O)(O)O)[C@@H](O)[C@H]1O [adenylyl imidodiphosphate]
# Test: NP40-soluble protein abundance relative to vehicle (solubility fold change) (ratio); higher = more soluble protein in presence of AMP-PNP
# Outline: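 Data come from three independent experiments in which Dounce-homogenised Jurkat crude lysate was treated at eight concentrations from 0.1 to 10 mM. Treatment ran 10 min at room temperature and then 3 min at 37 °C, after which 0.8% NP40 and benzonase were added for 60 min at 4 °C before ultracentrifugation. The supernatant underwent TMT labelling and LC-MS/MS, and vsn-normalised intensities were expressed as fold change against the detergent-processed vehicle in each replicate.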
Target,NP40-soluble protein abundance (concentration: 1mM),NP40-soluble protein abundance (concentration: 2mM),NP40-soluble protein abundance (concentration: 4mM),NP40-soluble protein abundance (concentration: 6mM),NP40-soluble protein abundance (concentration: 8mM),NP40-soluble protein abundance (concentration: 10mM)
UniProt Q86WA8 and related entries,0.994 ± 0.04,0.967 ± 0.089,1.02 ± 0.072,1.01 ± 0.07,0.989 ± 0.043,1.01 ± 0.084
SLC15A4 (UniProt Q8N697),0.975 ± 0.026,0.971 ± 0.034,0.993 ± 0.042,0.985 ± 0.047,0.99 ± 0.022,0.992 ± 0.039
TSEN54 (UniProt Q7Z6J9),1.01 ± 0.03,1.03 ± 0.014,1.02 ± 0.018,0.99 ± 0.021,0.976 ± 0.018,0.997 ± 0.013
UniProt Q8N5U6 and related entries,0.977 ± 0.011,0.977 ± 0.023,0.975 ± 0.032,0.998 ± 0.031,0.995 ± 0.056,0.991 ± 0.062
Q8IWY7 (UniProt Q6IQ55),1 ± 0.028,0.973 ± 0.033,1.01 ± 0.041,1.01 ± 0.017,0.966 ± 0.038,0.97 ± 0.019
UniProt Q86X10 and related entries,0.979 ± 0.056,0.939 ± 0.051,1 ± 0.024,0.938 ± 0.016,0.945 ± 0.015,0.934 ± 0.049
UniProt Q86X95,0.975 ± 0.021,1.04 ± 0.076,0.998 ± 0.082,0.925 ± 0.032,0.936 ± 0.04,0.937 ± 0.048
GCC2 (UniProt Q8IWJ2),1.036 ± 0.0092,1.08 ± 0.079,1.04 ± 0.027,0.985 ± 0.02,0.966 ± 0.013,0.983 ± 0.023
GDPD1 (UniProt Q8N9F7),0.996 ± 0.013,0.994 ± 0.049,1.04 ± 0.04,0.994 ± 0.025,1.03 ± 0.029,1.01 ± 0.03
UniProt Q86YS7,0.973 ± 0.015,0.97 ± 0.016,0.982 ± 0.017,0.942 ± 0.012,0.919 ± 0.015,0.948 ± 0.018
UniProt Q86SK9 and related entries,0.98 ± 0.03,0.982 ± 0.037,0.988 ± 0.055,0.987 ± 0.03,0.976 ± 0.023,0.98 ± 0.053
PIAS4 (UniProt Q8N2W9),1 ± 0.05,0.986 ± 0.035,1.02 ± 0.018,1.02 ± 0.073,1.03 ± 0.047,1.02 ± 0.033
UniProt Q86Y56,0.976 ± 0.045,0.931 ± 0.038,0.977 ± 0.037,1.01 ± 0.022,0.997 ± 0.055,0.991 ± 0.04
UniProt Q8N371,1.02 ± 0.059,1.01 ± 0.032,1.04 ± 0.018,1 ± 0.07,1.05 ± 0.085,1.06 ± 0.036
IRF2BP1 (UniProt Q8IU81),0.967 ± 0.014,1 ± 0.042,1 ± 0.018,0.979 ± 0.027,0.977 ± 0.013,0.989 ± 0.029
UniProt Q86UT6 and related entries,1.01 ± 0.016,1.01 ± 0.014,1.01 ± 0.011,1.008 ± 0.0033,1.01 ± 0.024,1.01 ± 0.026
UniProt Q8IUD2 and related entries,1 ± 0.027,1.05 ± 0.081,1.01 ± 0.017,1 ± 0.033,0.9781 ± 0.0069,0.9884 ± 0.0061
COMMD1 (UniProt Q8N668),0.932 ± 0.038,0.956 ± 0.045,0.883 ± 0.032,0.957 ± 0.026,0.91 ± 0.031,0.905 ± 0.052
ERI1 (UniProt Q8IV48),0.98 ± 0.062,0.981 ± 0.047,1.03 ± 0.07,1.07 ± 0.036,1.12 ± 0.06,1.13 ± 0.072
AGGF1 (UniProt Q8N302),1.04 ± 0.03,1.04 ± 0.068,1.04 ± 0.05,1.02 ± 0.037,1.03 ± 0.02,1.04 ± 0.025
ARFGAP1 (UniProt Q8N6T3),1.02 ± 0.021,1.02 ± 0.023,1.02 ± 0.016,1.02 ± 0.023,0.993 ± 0.018,1.01 ± 0.038
UniProt Q8N1K5 and related entries,0.974 ± 0.016,0.917 ± 0.047,0.946 ± 0.016,0.899 ± 0.021,0.924 ± 0.0099,0.88 ± 0.03
UniProt Q8IYB1,0.999 ± 0.037,0.966 ± 0.051,0.971 ± 0.042,0.9809 ± 0.0042,0.98 ± 0.022,0.965 ± 0.018
SMC5 (UniProt Q8IY18),0.985 ± 0.018,0.98 ± 0.015,0.975 ± 0.015,0.9807 ± 0.0094,0.969 ± 0.011,0.994 ± 0.023
UniProt Q8IU85 and related entries,0.994 ± 0.025,0.976 ± 0.051,0.977 ± 0.069,0.921 ± 0.027,0.948 ± 0.016,0.933 ± 0.042
HPS6 (UniProt Q86YV9),0.9785 ± 0.0057,0.946 ± 0.011,0.957 ± 0.051,0.958 ± 0.02,0.9728 ± 0.0074,0.9453 ± 0.0044
UniProt Q86W92 and related entries,1.05 ± 0.018,1.07 ± 0.018,1.06 ± 0.016,1.01 ± 0.026,1.02 ± 0.029,1.02 ± 0.029
UniProt Q8NBJ5,0.979 ± 0.032,0.932 ± 0.041,0.977 ± 0.012,0.968 ± 0.026,0.95 ± 0.019,0.937 ± 0.024
UniProt Q86VV8 and related entries,0.879 ± 0.039,0.847 ± 0.035,0.886 ± 0.086,0.962 ± 0.056,0.964 ± 0.06,0.917 ± 0.077
UniProt Q8IUX7,1.01 ± 0.036,1 ± 0.024,1.03 ± 0.014,0.983 ± 0.032,0.9724 ± 0.005,0.984 ± 0.0099

# Random excerpt: 2 entries already listed.
Target,NP40-soluble protein abundance (concentration: 1mM),NP40-soluble protein abundance (concentration: 2mM),NP40-soluble protein abundance (concentration: 4mM),NP40-soluble protein abundance (concentration: 6mM),NP40-soluble protein abundance (concentration: 8mM),NP40-soluble protein abundance (concentration: 10mM)
SMC5 (UniProt Q8IY18),0.985 ± 0.018,0.98 ± 0.015,0.975 ± 0.015,0.9807 ± 0.0094,0.969 ± 0.011,0.994 ± 0.023
COMMD1 (UniProt Q8N668),0.932 ± 0.038,0.956 ± 0.045,0.883 ± 0.032,0.957 ± 0.026,0.91 ± 0.031,0.905 ± 0.052
